What was measured:
[1] = system: muscarinic receptors; assay type: binding, rat; details: for Muscarinic Ki / Nicotinic Ki: ratio, selectivity for nicotinic over muscarinic receptor
Protocol: The potencies of ligand binding at central muscarinic binding sites were determined by analysis of competition with the specific muscarinic receptor radioligand [^3 H]-quinuclidinyl benzilate ([^3 H]-QNB). […] Competition between various concentrations of putative nicotinic ligand compounds and 0.2 nM [^3 H]-QNB was performed at 25° C. in an assay volume of 1 mL. After 75 minutes, the bound radioligand was separated by vacuum filtration on Whatman GF/B glass fiber filters. Non-specific binding was defined as radioactivity remaining in the presence of 10 μM atropine. Competition curves were analyzed for Ki values as described above for binding to the nicotinic receptor.

[2] = system: neuronal nicotinic cholinergic channels in PC12 cells; assay: Cholinergic channel activator action in PC12 cells, whole-cell patch-clamp; assay type: cell-based, rat; details: for Hill coefficient (n): PC12 cells, mean ± S.E.M.
Protocol: Electrophysiologic recordings were obtained from differentiated (neurite-bearing) cells after 4-7 days exposure to NGF. […] After 20 minutes, differentiating medium was added (DMEM containing 100 ng/ml nerve growth factor, 5% heat-inactivated fetal calf serum and 2.5% heat-inactivated horse serum) and the cells were refed with this medium every 3 days.
The intracellular (recording pipette) solution consisted of 140 mM KCl, 1.0 mM CaCl2, 2.0 mM MgCl2, 11 mM K-EGTA, and 10 mM K-HEPES buffer (7.3 pH, 315 mOsm). Osmolarities were adjusted using dextrose such that the extracellular solution was 10 mOsm hypertonic compared to the intracellular solution. Voltage-gated inward (sodium) and outward (potassium) currents were monitored throughout the experiment to determine establishment and maintenance of the whole-cell recording configuration.

| Structure (SMILES) | selectivity for nicotinic receptors relative to arecoline ([1]; compared with arecoline) [fold] | Muscarinic Ki / Nicotinic Ki [1] | Hill coefficient (n) [2] | apparent potency less than that of (-)-nicotine ([2]; fold less potent than (-)-nicotine) |
| --- | --- | --- | --- | --- |
| Cc1cc([C@@H]2CCCN2C)on1.O=C(O)C(=O)O [Example 2, 3-Methyl-5-(1-methyl-2(S)-pyrrolidinyl)-isoxazole oxalate salt] | 376 | 32,000 | 1.18 ± 0.29 | about 4 fold |
| CN1CCCC1c1cccnc1 (single isomer, unassigned; (-)) [(-)-Nicotine, reference compound] | – | – | 1.77 ± 0.18 | – |
| COC(=O)C1=CCCN(C)C1 [Arecoline, reference compound] | – | 85 | – | – |
